Test results: publication PMC7819943, “Rice protein-binding microarrays: a tool to detect cis-acting elements near promoter regions in rice”
The other results are listed elsewhere or left out.

By UniProt entry, the sequences of proteins in these tests, tags left out.
UniProt Q0JBA9, entry or part of it: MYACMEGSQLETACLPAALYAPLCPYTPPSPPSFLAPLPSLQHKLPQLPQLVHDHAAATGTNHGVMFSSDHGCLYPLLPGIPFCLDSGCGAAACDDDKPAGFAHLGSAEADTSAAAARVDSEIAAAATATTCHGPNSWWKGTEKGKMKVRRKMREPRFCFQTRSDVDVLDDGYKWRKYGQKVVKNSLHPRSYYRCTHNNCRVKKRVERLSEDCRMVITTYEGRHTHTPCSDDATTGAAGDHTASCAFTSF

The sequences below were run against OsWRKY34 (Oryza sativa, UniProt Q0JBA9 1-250) (assay: protein-binding microarray (RPBM); PBS, 2% BSA, 51.3 ng/ul salmon testes DNA, 50 uM zinc acetate, 200 nM TF, 25 C, 1 h; high values mean tight binding). Details: protein: recombinant; tags: N-terminal polyhistidine and DsRed monomer fusion (pET32a); label: CyDye5-dUTP incorporated in the synthesized complementary strand; 3' TTTTT single-stranded linker to array surface; dsDNA, one strand shown.
Summary of the method: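 Per-feature fluorescence intensity (arbitrary units), read on an Axon 4000B scanner, is the binding signal. Transcription factors carrying an N-terminal polyhistidine tag and DsRed fusion were expressed in E. coli BL21-CodonPlus and purified on Ni–NTA. A custom Agilent array, made double-stranded by primer extension with Cy5-dUTP and blocked with 2% BSA, was incubated with 200 nM protein in PBS, 2% BSA, salmon testes DNA and 50 µM zinc acetate at 25 °C for 1 h and then washed.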
“TGAAAAACCGTGTCAGTGCCGAGTCTCAAGCCTAGCCGTCCGGAGTCACCTAGTGCAG” was tested, and the binding signal was 8080 fluorescence intensity (a.u.). “ATTTTGGTGATTTTTGGAACATACTATTTCCGTGATGAGTCGGAGTCACCTAGTGCAG” was tested, and the binding signal was 9350 fluorescence intensity (a.u.). In the case of “CCGCCATTGACGCCCAAATCTCCATGGATCAAGAGGTTCTCGGAGTCACCTAGTGCAG”, the binding signal is reported as 8160 fluorescence intensity (a.u.). With “TCTCATCATCAGAGTATGGTTTGCCCAGTTCCTCATTGACCGGAGTCACCTAGTGCAG” the binding signal was 8680 fluorescence intensity (a.u.). With “CCTGACGTGCTTCACCTCACCTGCTCATTTTTTATTTCCCCGGAGTCACCTAGTGCAG” the binding signal was 17300 fluorescence intensity (a.u.). With “GAGGGAGTGTGGACGTCTGATTTTCTTTTCACTTAATATTCGGAGTCACCTAGTGCAG” the binding signal was 11600 fluorescence intensity (a.u.). In the case of “CTACAGCGTTAAAATCGATTTTGGGTGGGACCCATGAAAACGGAGTCACCTAGTGCAG”, the binding signal is reported as 9220 fluorescence intensity (a.u.). For “GAGGAGAGAGGGGTTGAACTGAAAAGTAGTGTTAATTAATCGGAGTCACCTAGTGCAG”, the binding signal was 8860 fluorescence intensity (a.u.). With “AAGCAGTTTCCTCCTCTCCAAACCAGGCTCATCTCCATCTCGGAGTCACCTAGTGCAG” the binding signal was 10500 fluorescence intensity (a.u.). “AAAGGGCCTGAACCAGTATAATTCTTGTCTTTTGTTTGCTCGGAGTCACCTAGTGCAG” was tested, and the binding signal was 8900 fluorescence intensity (a.u.). For “CCCATATTCCTCTAATTTCTGTGAGTAATCTATCCATAATCGGAGTCACCTAGTGCAG”, the binding signal was 9470 fluorescence intensity (a.u.). With “CATCATCCTTTTTTCCAGCCCTATCCACGACCCATCCAACCGGAGTCACCTAGTGCAG” the binding signal was 9440 fluorescence intensity (a.u.). For “GTTTCGGGGAGAGGGGCAGAAGGAAAAGAGACTCCTAGCTCGGAGTCACCTAGTGCAG”, the binding signal was 10300 fluorescence intensity (a.u.). “AACATTAACCGCTCAACCACGCCATATATATTACCCTTATCGGAGTCACCTAGTGCAG” was tested, and the binding signal was 8590 fluorescence intensity (a.u.). “CCTATATTGGGTTCGTTGGTTTGTAGGGAGGTAGGTAAAACGGAGTCACCTAGTGCAG” was tested, and the binding signal was 10700 fluorescence intensity (a.u.). “TCACCCATCCACCTCGTCGACTAGTCCCGTCGTCCGTGACCGGAGTCACCTAGTGCAG” was tested, and the binding signal was 10200 fluorescence intensity (a.u.). With “CTCTGGTCCAATCAAATGGTCATTCCTGTGTTTTTCCTGTCGGAGTCACCTAGTGCAG” the binding signal was 12000 fluorescence intensity (a.u.). With “GACTCCTCGCAGCTTCCTCTTGTTTTTCTTGGCCGAACCCCGGAGTCACCTAGTGCAG” the binding signal was 14200 fluorescence intensity (a.u.). In the case of “GTGTTTGAGTTGGATTATACGCTCGTTTGCTTTTGGAAATCGGAGTCACCTAGTGCAG”, the binding signal is reported as 8880 fluorescence intensity (a.u.). In the case of “CCGCTGGAGCTTCCCGAACATGACCTCGTACGCCGGCACCCGGAGTCACCTAGTGCAG”, the binding signal is reported as 8150 fluorescence intensity (a.u.). In the case of “TTGCTCCGTGCTGTCCGCCCTAAACCTATACACAAGAGCACGGAGTCACCTAGTGCAG”, the binding signal is reported as 8190 fluorescence intensity (a.u.). “GTTGCTTGCCTACAATTCTCAGCCAATAACCACATCTCTGCGGAGTCACCTAGTGCAG” was tested, and the binding signal was 8560 fluorescence intensity (a.u.). “CGCCACCAAACCCCGAGAACAAGAAAGCTATATACCATCTCGGAGTCACCTAGTGCAG” was tested, and the binding signal was 8860 fluorescence intensity (a.u.). For “AATAATTTTGTAATCGGTAGTTGTTTCCTTTTACAAACTCCGGAGTCACCTAGTGCAG”, the binding signal was 8600 fluorescence intensity (a.u.). “GATCCGTTCCGTTCGTCCTTTGATCCTTTTCTATCTCTCCCGGAGTCACCTAGTGCAG” was tested, and the binding signal was 9940 fluorescence intensity (a.u.). “CGGGTGGATGTTGGGGATGATGCCGGTGTAGTTCATATAGCGGAGTCACCTAGTGCAG” was tested, and the binding signal was 9900 fluorescence intensity (a.u.). With “CCATCGCCCTGACCTCATTCACCATGTTAGTGCAGCAACACGGAGTCACCTAGTGCAG” the binding signal was 8050 fluorescence intensity (a.u.). In the case of “GTGGGAGAGGCCGGCCGAGGGGAGGAGAGGGGAGGGGTGCCGGAGTCACCTAGTGCAG”, the binding signal is reported as 10700 fluorescence intensity (a.u.). For “GGGTACGACGCGCCGCGCGTCCGCTTTCCGATTCAGTTTTCGGAGTCACCTAGTGCAG”, the binding signal was 9520 fluorescence intensity (a.u.). “TTAGCTCTTGTATACATTTGATCATCCTCTGTGGAGAAAACGGAGTCACCTAGTGCAG” was tested, and the binding signal was 8400 fluorescence intensity (a.u.). In the case of “TTTATGGCATGGTTCTCGGTTGACTAACTGGGCCGGCATTCGGAGTCACCTAGTGCAG”, the binding signal is reported as 8940 fluorescence intensity (a.u.). In the case of “GCTATTATACCAGCTCTTATTTCATTTCATGTGCACGTTTCGGAGTCACCTAGTGCAG”, the binding signal is reported as 13800 fluorescence intensity (a.u.). With “ATGTAATCTCTCCCGGCCCCACCTAATTTTTTCTGATGCTCGGAGTCACCTAGTGCAG” the binding signal was 8060 fluorescence intensity (a.u.). With “CTCTCTCTCTCTACCGTCTCGTCTCGCTTGCGTCGCGAGACGGAGTCACCTAGTGCAG” the binding signal was 8210 fluorescence intensity (a.u.). For “GTTTGTGGTGATTTTGTTGATGAGTACTTCCCAGCCTTGACGGAGTCACCTAGTGCAG”, the binding signal was 9830 fluorescence intensity (a.u.). In the case of “CATGTTATTGAACAACCACTATATGTTTCTGAGTTGTGATCGGAGTCACCTAGTGCAG”, the binding signal is reported as 8620 fluorescence intensity (a.u.). In the case of “GCATGTGTTCGTTATGTGTGGTTGGAGATTTTCTCCCACACGGAGTCACCTAGTGCAG”, the binding signal is reported as 8470 fluorescence intensity (a.u.). For “AGAGTAACCCATCCGACCCTGTTTAATATCACTCCTTTGACGGAGTCACCTAGTGCAG”, the binding signal was 8220 fluorescence intensity (a.u.). “CTGTTGACTATCCATGCCATTTTTACCGATTAGTCTATCTCGGAGTCACCTAGTGCAG” was tested, and the binding signal was 13800 fluorescence intensity (a.u.). For “GGGCCTCGCCCACTTGTTCCTACGCCCCTTTCCGCGCGAGCGGAGTCACCTAGTGCAG”, the binding signal was 8170 fluorescence intensity (a.u.). With “CAGTTTTGTTCTTTGTGATAACTCCATGTCTCAATCTTCACGGAGTCACCTAGTGCAG” the binding signal was 10500 fluorescence intensity (a.u.). In the case of “CTTCTACCGCTACATCGTCTGCTCACCTTGGAGAAGTTTCCGGAGTCACCTAGTGCAG”, the binding signal is reported as 8890 fluorescence intensity (a.u.).
